Reference: paper doi:10.1101/2023.03.29.534715
Read-outs that look alike come from different tables or passages of the source. No constants are given. Whether binding was seen depends on the method and setting. Binding seen in cells or lysates may run through a third protein. Some results given as binding are weak or reduced against the parent protein; the word gives no strength.

Amino acid sequences for entries named in this document (tags omitted). Residues count along the entry.
UniProt P08575, residues 26-1306: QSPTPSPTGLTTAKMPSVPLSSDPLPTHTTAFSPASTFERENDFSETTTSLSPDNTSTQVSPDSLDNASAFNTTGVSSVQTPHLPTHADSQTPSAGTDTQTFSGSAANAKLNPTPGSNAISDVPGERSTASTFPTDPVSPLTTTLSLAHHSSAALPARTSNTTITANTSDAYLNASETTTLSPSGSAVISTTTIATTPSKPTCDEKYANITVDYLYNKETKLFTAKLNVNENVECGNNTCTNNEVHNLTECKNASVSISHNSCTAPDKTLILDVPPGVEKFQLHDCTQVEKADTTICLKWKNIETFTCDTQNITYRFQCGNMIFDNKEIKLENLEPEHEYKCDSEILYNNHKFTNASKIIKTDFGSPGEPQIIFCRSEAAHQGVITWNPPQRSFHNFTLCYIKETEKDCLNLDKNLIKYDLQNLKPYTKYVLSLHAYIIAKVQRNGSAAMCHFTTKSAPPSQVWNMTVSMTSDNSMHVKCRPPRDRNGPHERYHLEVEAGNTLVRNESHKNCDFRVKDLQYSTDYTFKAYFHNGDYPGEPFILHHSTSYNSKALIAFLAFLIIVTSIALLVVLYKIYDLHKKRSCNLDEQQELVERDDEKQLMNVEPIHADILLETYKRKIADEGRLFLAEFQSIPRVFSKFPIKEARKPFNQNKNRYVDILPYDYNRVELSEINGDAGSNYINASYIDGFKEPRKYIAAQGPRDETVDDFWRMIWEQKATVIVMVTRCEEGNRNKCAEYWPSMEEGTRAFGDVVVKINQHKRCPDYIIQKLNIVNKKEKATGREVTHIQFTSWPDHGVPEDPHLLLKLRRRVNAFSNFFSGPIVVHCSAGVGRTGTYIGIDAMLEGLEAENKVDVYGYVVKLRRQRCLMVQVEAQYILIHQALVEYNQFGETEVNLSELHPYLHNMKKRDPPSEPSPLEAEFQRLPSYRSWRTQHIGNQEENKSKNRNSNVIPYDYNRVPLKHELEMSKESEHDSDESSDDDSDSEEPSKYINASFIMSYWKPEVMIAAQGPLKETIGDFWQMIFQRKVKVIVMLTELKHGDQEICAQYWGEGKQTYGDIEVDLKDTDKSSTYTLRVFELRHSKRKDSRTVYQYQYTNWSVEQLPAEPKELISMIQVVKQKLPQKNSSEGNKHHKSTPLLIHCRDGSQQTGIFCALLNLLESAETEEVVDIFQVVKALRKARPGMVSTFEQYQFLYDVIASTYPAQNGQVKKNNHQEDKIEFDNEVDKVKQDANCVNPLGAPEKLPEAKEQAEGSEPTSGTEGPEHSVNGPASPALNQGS
UniProt P08887, residues 20-468: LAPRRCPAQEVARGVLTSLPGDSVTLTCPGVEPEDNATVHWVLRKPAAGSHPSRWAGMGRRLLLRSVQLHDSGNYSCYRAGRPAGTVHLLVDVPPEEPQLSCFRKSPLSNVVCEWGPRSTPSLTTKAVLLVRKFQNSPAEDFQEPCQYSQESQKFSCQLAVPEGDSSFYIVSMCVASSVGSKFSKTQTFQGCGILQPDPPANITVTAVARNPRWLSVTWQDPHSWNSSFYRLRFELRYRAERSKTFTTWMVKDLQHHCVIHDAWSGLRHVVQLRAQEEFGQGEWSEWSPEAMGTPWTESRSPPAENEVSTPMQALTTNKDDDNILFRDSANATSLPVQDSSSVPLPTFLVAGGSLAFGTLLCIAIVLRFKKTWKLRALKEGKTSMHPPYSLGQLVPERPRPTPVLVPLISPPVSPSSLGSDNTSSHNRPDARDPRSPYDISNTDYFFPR

Experiments:
Experiment in all cases: co-IP
[1] = biological target: T1, ALFA-CD53(NG) (human) (UniProt P19397)
T1 sequence: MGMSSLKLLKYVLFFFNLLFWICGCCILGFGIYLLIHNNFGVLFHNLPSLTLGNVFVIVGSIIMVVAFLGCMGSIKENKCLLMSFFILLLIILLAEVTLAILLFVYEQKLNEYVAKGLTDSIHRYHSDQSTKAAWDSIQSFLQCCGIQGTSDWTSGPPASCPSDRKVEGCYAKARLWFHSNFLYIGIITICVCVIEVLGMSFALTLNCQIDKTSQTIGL

[2] = biological target: T2, ALFA-CD53 (WT) (human) (UniProt P19397)
T2 sequence (chain, N-glycosylation at N129 and N148 (broad repertoire of glycoforms)): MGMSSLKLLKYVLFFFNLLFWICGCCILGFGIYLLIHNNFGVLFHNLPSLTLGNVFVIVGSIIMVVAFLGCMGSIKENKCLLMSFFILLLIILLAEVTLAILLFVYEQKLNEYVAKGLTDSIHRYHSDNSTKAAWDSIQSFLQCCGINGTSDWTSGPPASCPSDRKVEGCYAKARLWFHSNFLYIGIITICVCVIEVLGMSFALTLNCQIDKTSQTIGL

[3] = biological target: T3, ALFA-CD37 N170Q (human) (UniProt P11049)
T3 sequence: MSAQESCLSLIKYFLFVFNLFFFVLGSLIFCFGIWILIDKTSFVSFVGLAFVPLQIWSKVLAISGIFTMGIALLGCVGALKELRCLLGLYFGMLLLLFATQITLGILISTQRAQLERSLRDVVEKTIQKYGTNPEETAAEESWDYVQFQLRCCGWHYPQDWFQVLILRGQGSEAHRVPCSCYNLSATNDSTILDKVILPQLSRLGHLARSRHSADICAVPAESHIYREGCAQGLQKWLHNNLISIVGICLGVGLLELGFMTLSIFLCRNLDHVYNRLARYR

[4] = biological target: T4, ALFA-CD37 N183Q (human) (UniProt P11049)
T4 sequence: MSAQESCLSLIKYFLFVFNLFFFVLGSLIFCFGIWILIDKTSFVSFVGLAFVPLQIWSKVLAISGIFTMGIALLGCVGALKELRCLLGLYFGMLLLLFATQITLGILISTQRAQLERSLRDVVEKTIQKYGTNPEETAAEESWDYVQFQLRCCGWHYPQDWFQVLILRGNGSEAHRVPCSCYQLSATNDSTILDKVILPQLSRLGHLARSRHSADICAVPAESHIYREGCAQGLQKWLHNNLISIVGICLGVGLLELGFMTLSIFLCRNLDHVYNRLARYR

[5] = biological target: T5, ALFA-CD37 (WT) (human) (UniProt P11049)
T5 sequence (chain, N-glycosylation at N170, N183 and N188 (broad repertoire of glycoforms)): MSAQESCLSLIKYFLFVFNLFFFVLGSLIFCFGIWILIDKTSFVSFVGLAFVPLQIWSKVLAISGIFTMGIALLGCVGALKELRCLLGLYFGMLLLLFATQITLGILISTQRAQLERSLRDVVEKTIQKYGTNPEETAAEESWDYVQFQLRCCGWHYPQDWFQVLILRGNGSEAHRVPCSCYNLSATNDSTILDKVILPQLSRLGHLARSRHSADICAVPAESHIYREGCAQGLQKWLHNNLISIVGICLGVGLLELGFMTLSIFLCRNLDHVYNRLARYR

[6] = biological target: T6, ALFA-CD37 N188Q (human) (UniProt P11049)
T6 sequence: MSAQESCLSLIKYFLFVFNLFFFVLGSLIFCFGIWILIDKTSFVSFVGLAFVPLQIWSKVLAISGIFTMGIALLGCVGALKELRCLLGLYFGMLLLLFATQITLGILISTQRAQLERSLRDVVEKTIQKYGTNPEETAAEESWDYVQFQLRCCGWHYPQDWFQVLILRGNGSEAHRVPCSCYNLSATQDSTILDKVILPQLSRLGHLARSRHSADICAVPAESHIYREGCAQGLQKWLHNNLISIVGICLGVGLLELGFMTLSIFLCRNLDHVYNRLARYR

[7] = biological target: T3, ALFA-CD37 N170Q (human); remark: listed apart in the source
[8] = biological target: T4, ALFA-CD37 N183Q (human); remark: listed apart in the source
[9] = biological target: T5, ALFA-CD37 (WT) (human); remark: listed apart in the source
[10] = biological target: T1, ALFA-CD53(NG) (human); remark: listed apart in the source
[11] = biological target: T2, ALFA-CD53 (WT) (human); remark: listed apart in the source
[12] = biological target: T6, ALFA-CD37 N188Q (human); remark: listed apart in the source

Measured: binding

CD45 (endogenous) (from UniProt P08575 26-1306)
binds: [1] | [2]

IL-6Rα-GFP (from UniProt P08887 20-468) (receptor)
binds: [3] | [4] | [5] | [6]

B1: CD20 (endogenous) (protein, UniProt P11836 1-297)
chain: MTTPRNSVNGTFPAEPMKGPIAMQSGPKPLFRRMSSLVGPTQSFFMRESKTLGAVQIMNGLFHIALGGLLMIPAGIYAPICVTVWYPLWGGIMYIISGSLLAATEKNSRKCLVKGKMIMNSLSLFAAISGMILSIMDILNIKISHFLKMESLNFIRAHTPYINIYNCEPANPSEKNSPSTQYCYSIQSLFLGILSVMLIFAFFQELVIAGIVENEWKRTCSRPKSNIVLLSAEEKKEQTIEIKEEVVGLTETSSQPKNEEDIEIIPIQEEEEEETETNFPEPPQDQESSPIENDSSP
binds: [7] | [8] | [9] | [10] | [11] | [12]
